Measurements from US20250197358A1, “PESTICIDALLY ACTIVE THIOSEMICARBAZONE COMPOUNDS” (BASF SE, priority 2022, published 2025).
Some entries share one result that the patent states for a list of compounds. At least one compound was matched to its structure with a doubt left.

What was measured:
[1] = tested on: yellow fever mosquito (Aedes aegypti); type: in vivo; conditions: 800 ppm; larval mortality after 2 days
Protocol: Example B1: Action on Yellow Fever Mosquito (Aedes aegypti)
For experimental mixtures in these tests identical volumes of both mixing partners at the desired concentrations respectively, were mixed together.
After application, microtiter plates were incubated at 28±1° C., 80±5% RH for 2 days. Larval mortality was then visually assessed.

[2] = tested on: tobacco budworm (Heliothis virescens); conditions: 800 ppm; egg and larval mortality after 5 days
Protocol: For evaluating control of tobacco budworm (Heliothis virescens) the test unit consisted of 96-well-microtiter plates containing an insect diet and 15-25 H. virescens eggs.
Different concentrations of formulated compounds were sprayed onto the insect diet at 10 μl, using a custom-built micro atomizer, at two replications.
After application, microtiter plates were incubated at about 28+1° C. and about 80+5% relative humidity for 5 days. Egg and larval mortality were then visually assessed.

[3] = tested on: southern armyworm (Spodoptera eridania); type: in vivo; conditions: 300 ppm; 2nd instar larvae, 4 days after treatment
Protocol: The 10,000 ppm solution was serially diluted in 100% cyclohexanone to make interim solutions. These served as stock solutions for which final dilutions were made by the Tecan in 50% acetone:50% water (v/v) into 10 or 20 ml glass vials. A nonionic surfactant (Kinetic®) was included in the solution at a volume of 0.01% (v/v). The vials were then inserted into an automated electrostatic sprayer equipped with an atomizing nozzle for application to plants/insects.
Lima bean plants (variety Sieva) were grown 2 plants to a pot and selected for treatment at the 1st true leaf stage. Test solutions were sprayed onto the foliage by an automated electrostatic plant sprayer equipped with an atomizing spray nozzle. The plants were dried in the sprayer fume hood and then removed from the sprayer. Each pot was placed into perforated plastic bags with a zip closure. About 10 to 11 armyworm larvae were placed into the bag and the bags zipped closed. Test plants were maintained in a growth room at about 25° C. and about 20-40% relative humidity for 4 days, avoiding direct exposure to fluorescent light (24 hour photoperiod) to prevent trapping of heat inside the bags. Mortality and reduced feeding were assessed 4 days after treatment, compared to untreated control plants.

[4] = tested on: orchid thrips (Dichromothrips corbetti); type: in vivo; conditions: 500 ppm; adult thrips, 72 hours after treatment
Protocol: Dichromothrips corbetti adults used for bioassay were obtained from a colony maintained continuously under laboratory conditions. For testing purposes, the test compound is diluted in a 1:1 mixture of acetone:water (vol:vol), plus Kinetic® HV at a rate of 0.01% v/v.
Thrips potency of each compound was evaluated by using a floral-immersion technique. All petals of individual, intact orchid flowers were dipped into treatment solution and allowed to dry in Petri dishes. Treated petals were placed into individual re-sealable plastic along with about 20 adult thrips. All test arenas were held under continuous light and a temperature of about 28° C. for duration of the assay. After 3 days, the numbers of live thrips were counted on each petal. The percent mortality was recorded 72 hours after treatment.

[5] = tested on: diamond back moth (Plutella xylostella); type: in vivo; conditions: 500 ppm; 3rd instar larvae, 72 hours after treatment
Protocol: Surfactant (Kinetic® HV) is added at a rate of 0.01% (v/v). The test solution is prepared at the day of use.
Leaves of cabbage were dipped in test solution and air-dried. Treated leaves were placed in petri dishes lined with moist filter paper and inoculated with ten 3rd instar larvae. Mortality was recorded 72 hours after treatment. Feeding damages were also recorded using a scale of 0-100%.

[6] = tested on: silverleaf whitefly (Bemisia argentifolii); test: Action on silverleaf whitefly (Bemisia argentifolii) adults, sprayed cotton plants; type: in vivo; conditions: 300 ppm, 3 days after treatment
[7] = tested on: boll weevil (Anthonomus grandis); conditions: 800 ppm; egg and larval mortality after 5 days

| SMILES | mortality in comparison with untreated controls [1] | mortality in comparison with untreated controls [2] | mortality in comparison with untreated controls [3] | mortality in comparison with untreated controls [4] | mortality in comparison with untreated controls [5] | mortality in comparison with untreated controls [6] | mortality in comparison with untreated controls [7] |
| --- | --- | --- | --- | --- | --- | --- | --- |
| CCOC(=O)OCS/C(=N\N=C\c1ccc(-c2nn(C)c(NC(=O)c3ccc(C(F)(F)F)cc3)c2C)cc1)Nc1cc(C)ccc1C(C)C [Compound C-1] | at least 50% |  |  |  |  |  |  |
| CCOC(=O)OCS/C(=N\N=C\c1ccc(-c2nc(NC(=O)c3ccc(OC(F)(F)F)cc3)n(C)n2)cc1)Nc1cc(C)ccc1C(C)C [Compound C-2] | at least 50% | at least 75% | at least 75% | at least 75% | at least 75% | at least 75% | at least 75% |
| Cc1ccc(C(C)C)c(N/C(=N/N=C/c2ccc(-c3nc(NC(=O)c4ccc(OC(F)(F)F)cc4)n(C)n3)cc2)SCOC(=O)C(C)C)c1 [Compound C-3] | at least 50% | at least 75% | at least 75% | at least 75% | at least 75% | at least 75% | at least 75% |
| CC(=O)OCS/C(=N\N=C\c1ccc(-c2nc(NC(=O)c3ccc(OC(F)(F)F)cc3)n(C)n2)cc1)Nc1cc(C)ccc1C(C)C [Compound C-4] | at least 50% | at least 75% | at least 75% | at least 75% | at least 75% | at least 75% | at least 75% |
| Cc1ccc(C(C)C)c(N/C(=N/N=C/c2ccc(-c3nc(NC(=O)c4ccc(OC(F)(F)F)cc4)n(C)n3)cc2)SCOC(=O)C(C)(C)C)c1 [Compound C-5] |  | at least 75% | at least 75% | at least 75% | at least 75% | at least 75% | at least 75% |
| Cc1ccc(C(C)C)c(N/C(=N/N=C/c2ccc(-c3nc(NC(=O)c4ccc(OC(F)(F)F)cc4)n(C)n3)cc2)SCOC(=O)CC(C)(C)C)c1 [Compound C-6] |  | at least 75% | at least 75% | at least 75% | at least 75% |  | at least 75% |
| Cc1ccc(C(C)C)c(N/C(=N/N=C/c2ccc(-c3nc(NC(=O)c4ccc(OC(F)(F)F)cc4)n(C)n3)cc2)SCOC(=O)c2ccccc2)c1 [Compound C-10] |  | at least 75% | at least 75% |  | at least 75% |  | at least 75% |
| Cc1ccc(C(C)C)c(N/C(=N/N=C/c2ccc(-c3nc(NC(=O)c4ccc(OC(F)(F)F)cc4)n(C)n3)cc2)SCOC(=O)C2CCCCC2)c1 [Compound C-11] |  | at least 75% | at least 75% |  |  |  |  |
| Cc1ccc(C(C)C)c(N/C(=N/N=C/c2ccc(-c3nc(NC(=O)c4ccc(OC(F)(F)F)cc4)n(C)n3)c(F)c2)SC(C)OC(=O)OC(C)C)c1 (centres unmarked) [Compound C-12] | at least 50% | at least 75% | at least 75% | at least 75% | at least 75% |  | at least 75% |
| Cc1ccc(C(C)C)c(N/C(=N/N=C/c2ccc(-c3nc(NC(=O)c4ccc(OC(F)(F)F)cc4)n(C)n3)c(F)c2)SCOC(=O)C(C)C)c1 [Compound C-13] | at least 50% | at least 75% | at least 75% | at least 75% | at least 75% |  | at least 75% |
| CCOC(=O)OCS/C(=N\N=C\c1ccc(-c2nc(NC(=O)c3ccc(OC(F)(F)F)cc3)n(C)n2)c(F)c1)Nc1cc(C)ccc1C(C)C [Compound C-14] |  | at least 75% | at least 75% | at least 75% | at least 75% |  | at least 75% |
| CC(=O)OCS/C(=N\N=C\c1ccc(-c2nc(NC(=O)c3ccc(OC(F)(F)F)cc3)n(C)n2)c(F)c1)Nc1cc(C)ccc1C(C)C [Compound C-15] | at least 50% | at least 75% | at least 75% | at least 75% | at least 75% |  | at least 75% |
